Data as given in PubChem BioAssay AID1224826 (NIAID, 2016)
The deposit covers about 17,000 reagents; shown is a part drawn at random. Over the whole deposit, about 1,110 (6.6%) were called active. 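Active means lowered or raised reporter signal; replicate intensities are raw and not normalised per plate.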 Entries without a mark were called inactive. Reagents against one gene are numbered here. No sequences are given here.

- Purpose: 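Regulators of Tlr4 signalling leading to Tnf-alpha expression in macrophages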 (primary screen)
- Cells: RAW264.7 G9 macrophages from mouse bearing reporters for p65 (GFP) and the Tnf promoter (mCherry)
- Reagents: siRNA pool against mouse genes, 100 nM
- Time to read-out: 16 h of LPS stimulation, after 2 days of siRNA transfection
- Conditions: bacterial lipopolysaccharide (Salmonella minnesota R595), 10 ng/ml
- Detection: 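Imaged Tnf reporter mCherry in nuclei, minus background, normalised per plate to the median and expressed as robust z-scores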
- Direction: Tnf reporter robust z-score: higher = stronger Tnf promoter reporter signal after LPS; Tnf reporter intensity: higher = stronger Tnf promoter reporter signal
- Hit rule: 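a well counts as active at a score of -1.3 or below (Tlr4 knock-down control median) or above 3 (raised signal); controls and wells holding fewer than 50 cells are excluded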
- Calls: active = Tnf reporter clearly lowered or raised; inactive = no clear change in Tnf reporter

The first 4 entries as a preview:
gene	pool no.	Tnf reporter robust z-score	fewer than 50 cells in well	Tnf reporter intensity, replicate 1	Tnf reporter intensity, replicate 2
Syce2 (synaptonemal complex central element protein 2)	1	-0.36	enough cells in well	214	62.4
Mppe1 (metallophosphoesterase 1)	1	0.44	enough cells in well	254	125
Cxcl5 (C-X-C motif chemokine ligand 5)	1	0.89	enough cells in well	289	280
Zfand5 (zinc finger, AN1-type domain 5)	1	0.66	enough cells in well	146	159

Results, repeating the preview:
gene	pool no.	Tnf reporter robust z-score	fewer than 50 cells in well	Tnf reporter intensity, replicate 1	Tnf reporter intensity, replicate 2
Syce2 (synaptonemal complex central element protein 2)	1	-0.36	enough cells in well	214	62.4
Mppe1 (metallophosphoesterase 1)	1	0.44	enough cells in well	254	125
Cxcl5 (C-X-C motif chemokine ligand 5)	1	0.89	enough cells in well	289	280
Zfand5 (zinc finger, AN1-type domain 5)	1	0.66	enough cells in well	146	159
Zfp37 (zinc finger protein 37)	1	-0.09	enough cells in well	222	224
Cdc42ep1 (CDC42 effector protein 1)	1	-0.28	enough cells in well	199	212
Vstm2a (V-set and transmembrane domain containing 2A)	1	-0.86	enough cells in well	102	198
Uba2 (ubiquitin-like modifier activating enzyme 2)	1		fewer than 50 cells per well; well left out of calls	78.3	48
Cd274 (CD274 antigen)	1		fewer than 50 cells per well; well left out of calls	100	150
Psmb7 (proteasome (prosome, macropain) subunit, beta type 7)	1	4.32 (active)	enough cells in well	194	314
Iqcj (IQ motif containing J)	1	1.5	enough cells in well	333	203
Psma1 (proteasome subunit alpha 1)	1	0.43	enough cells in well	277	211
Prb1a (proline-rich protein BstNI subfamily 1A)	1	0.83	enough cells in well	385	63.9
Slc7a5	1	-2.02 (active)	enough cells in well	40.2	23.9
Hs3st2 (heparan sulfate (glucosamine) 3-O-sulfotransferase 2)	1		fewer than 50 cells per well; well left out of calls	86.9	45.8
Rtn2 (reticulon 2 (Z-band associated protein))	1		fewer than 50 cells per well; well left out of calls	177	49.7
Sec13 (SEC13 homolog, nuclear pore and COPII coat complex component)	1	0.02	enough cells in well	102	88.9
Prss58 (serine protease 58)	1	1.01	enough cells in well	362	80.6
Mthfd1l	1	-1.34 (active)	enough cells in well	146	67.5
Timd2 (T cell immunoglobulin and mucin domain containing 2)	1	0.09	enough cells in well	123	94.5
Arhgap9 (Rho GTPase activating protein 9)	1	0.7	enough cells in well	218	196
H1f2 (H1.2 linker histone, cluster member)	1	-0.47	enough cells in well	210	149
Ndfip2 (Nedd4 family interacting protein 2)	1	-0.38	enough cells in well	90.7	152
Lyrm2 (LYR motif containing 2)	1	0.71	enough cells in well	264	101
Etaa1 (Ewing tumor-associated antigen 1)	1	-0.6	enough cells in well	128	117
Erich2 (glutamate rich 2)	1		fewer than 50 cells per well; well left out of calls	155	50.1
Mogs (mannosyl-oligosaccharide glucosidase)	1	-0.21	enough cells in well	252	206
Ins1 (insulin I)	1	0.38	enough cells in well	225	120
Ppp1r12c (protein phosphatase 1, regulatory subunit 12C)	1	0.44	enough cells in well	260	240
Vmn2r122 (vomeronasal 2, receptor, 122)	1	0.35	enough cells in well	136	105
Vmn2r122 (vomeronasal 2, receptor, 122)	2	-0.63	enough cells in well	104	91.6
Usp7 (ubiquitin specific peptidase 7)	1	-0.09	enough cells in well	228	216
Zfp109 (zinc finger protein 109)	1	0.33	enough cells in well	150	125
Ppara (peroxisome proliferator activated receptor alpha)	1	-0.8	enough cells in well	110	79.8
Pgbd5 (piggyBac transposable element derived 5)	1	0.02	enough cells in well	137	144
Or5p60 (olfactory receptor family 5 subfamily P member 60)	1	1.82	enough cells in well	152	199
Cldn6 (claudin 6)	1	-0.73	enough cells in well	84.4	187
Slc19a1	1	0.9	enough cells in well	118	146
Mrpl51 (mitochondrial ribosomal protein L51)	1	3.92 (active)	enough cells in well	438	295
Rpl3 (ribosomal protein L3)	1		fewer than 50 cells per well; well left out of calls	17.6	16.4
